According to paper PMC4463644:
These are yes or no findings as the source states them, for the method shown. Binding seen in cells or lysates may run through a third protein. Here binding means that the protein was enriched with, or labelled near, the bait; the list need not be complete. Where a sequence is shown, tags or fusion partners need not be part of it.

B1: Egalitarian (protein, UniProt Q9W1K4 1-1004)
chain: MESMEYEMARNMTLLFFLERLLDKGEPRTVHDLSCQFGNKEFTKEMRQIAGGSQSGLKKFLAQYPAIFLVDGDYVQVNAYQHHNADDGGCGGKRDYIQEAKDYFKNKMLQYGAAAEVPVRSLLGHRSQASPQVRHISGQHIKEFTDFLMKHTDTFKVTDDYVMLVGCENMTDLPARDRLHLPQSNIDTRGTQQMLDFFAQCIEVKGPLLVDQLFHLLTTNFPQDQWLRMFKTPGDLSSFLKLFADCFHIQANLVTLLQKPKLSDTHIQQAQAQTREQFNALNNNNSASIRKQEPTPGGGGVGGVSSVQQRLQSPALRTNGHTNNNNGSNGSNNNNNNNNSIACPNFKLNAPVSNVMGGQSQGFGQPKSEPSSGFDSYVPMSELKLENLCENNYPSANTCYGPINNSSQQTQQVQTQQQQQPQHATQNPAEQRLNSVNQTLKQRINTLVIRTLAENLEKDKQSLANQQGGPISPHASPVHSIANSSSNQNAGSAANNANSNSNANPNNANHSPSHSYFVGDTWKIKVLQNTTVIANVKQSVFVTDIILKYAAKNESIVVSLDCEGINLGLKGEITLIEIGTTRGEAFLFDVQSCPAMVTDGGLKTVLEHDQVIKVIHDCRNDAANLYLQFGILLRNVFDTQAAHAILQYQESGKQVYKAKYISLNSLCEQYNAPCNPIKDQLKQIYRRDQKFWAKRPLTREMMLYAAGDVLVLIHDQLFGNLARQIKPENRALFSELCTEQILMQIKPNEVKIRKKQRKVSTEVSDLKQKLAQTSKSIVLSNREIRLLRYMDLTEDEKERLKGYYKVAKKLEKMESAGNPSKDQSDSEDEQEPNENDAFPSLDSVPSDNSLSGTFSPRFSSEPPSLTESMQMLEEILQNKSMDRIARIDKLEAILTTATSLPCEQIIASNSMQEQLGSSIATTENLQIIREKSKNIKNCNCQGERSVTPIMRTTDKRVVKLVDAESQTLSTGDVVITKIFFQDEHERAKEAALLSNSPAKRVSPT
B2: Mind-meld, isoform C (protein, UniProt Q9VXL1 1-1482)
chain: MWINIANLILIIAQLCVFVTSAGEADYTLDDSFWNEESPVGEVERLLKEYRQNQELVRRIGGHYYQIIYPVQLRHHEKMGISTREVSLPKPGQRPRPHDDSGFNRGRTKKHFHRTSLLIKAFNHKFRLDLELNSQLLSPNIQQKHYHVGGYLVDGNRHDIEHCYYHGTVKDYPGASAAFHTCNGVSGVIHIGNETFVIHPFYGGDLSKHPHVIFEARTKANKGCANSGNLDSWRLSRRTKHLSAGVAGVVEEILQAGVGRNKRDVREATKYIETAIIVDKAMFDKRNGSTRAEVIHDAIQVANIADLYFRTLNTRVSVVYIETWGKNQAVIDGSKDISKAISNFNDYTSRNLFQIERDTTQLLTGETFAGGEAGMAVPETVCTPRAVGISVDVNVYEPHLLAGTMAHMIGHNIGMGHDDGREECFCRDWHGCIMAQSIVGQENVQPYKFSECSKKDYIDALRTGHGLCLLNKPNEIELRRNCGNKVVEEDEECDCGTFEECALDQCCDGITCKLKSEAQCASGACCDQCRLRPKDYICRDSNNECDLPEYCDGEIGQCPSDVFKKNGSPCGLSKTGISGYCFQGYCPTLSLQCEAIWGYGGSAADRQCYEQFNSKGSINGHCGRDANEHYIKCEPENVQCGTLQCKDGERQPVNDGIDQLYSRTIISIKGQEFECKATSGQVGSNSYPEHGLVKDGTPCGDNLICLNQTCVSLFPHVDQTKCPANSQGLECSEHGVCTNTNRCFCDMGWGGNDCSSVVLLTTALPTEALPTPENTIKMEKKETPYENYHGSNTVFLVGVLMSVVGFVFITFTLMALCYRRKTTTLKYDPPYSKKPIAKSYGGAATAPNHHSVEEVSLDGSSKLVYANQTGFRDKGIHGRRYTTCGEDDQSHAEKGILKKHGYGLVHGEQLKDKWGDDNQSDNLELITQDGTLASTSGGAAASEVERTLKSLNGYHEDILEALRNAATHRGTGTGNTPVGSGSLSEEMLRKTLQDCNNSQLGYSAEQYKRNIGSKSSSRENICDNAAVHAIILDGSGGGLGGMGLGSSVGAGGGSTSMSGGMPGHGGTMLHHHRSQHQLHQPSTVALQPQQLDDDDAPSTGPLRIRNLEDLIRQLEHHSSRHMSPSGSEDIRMSETEADRHYRLESSAACSESSQGSNQQIPQSQKTATIHASYSRSCRPRSDEESRFTFGGRYRQPASSGRHAPHQSHSPHAFGHHTHHSHAHGHATHGPHSSHHSSHTHLQQEDEGIYETADHHERQVVDARLDCHETPDSESDDFIQAQQQLARWASEDVVSVVVLDQPPSGTMSDSQPYIDVGPISGAIAQQQHPHQQQQQQQQQQHPHQHHGDHHQSSAAAAGSGSGVAAATSVANSSIMALPIVPNGISVSQRDYYPSPPSTETESSGSVIQPPIRRGLQSAAAAAAAADTAALSQHQQQLQLLQLPIYQQHPHQHHHPQQSGDTSSSNNSQSEQIIENGCYPEYKH
B3: Ribosome biogenesis protein WDR12 homolog (protein, UniProt Q9VKQ3 1-420)
chain: MDVDNGEGQVQVHLKTKQEHYAVPDVPYAIDGTVTTVELNTFVNALLRQKDGSSDTDFDFLVFDEYLRGRLCDHLREKAISFEDAIEIEYVERFPAPEPQDCLLHDDWVSAVKARGKWILSGCYDNTLNLWTNKGKHILTISGHTAPIKAVDWISLDEETGRFVSTSQDQTAMLWQWNVGSNSVECVSVCKGHERGVDSVSVSPDGLRFATGSWDTMLKVWSAELDDAVEGSSKRMKESGVRTPKITLQGHRESVSAVQWMDATTLLTGSWDHTLKVWDLSLEGIKTEISTNKSIFDASYSKLNRLILTASADKNLRLYDPRTNQGSVVRNTYLGHNAWVQTVMWSTTEEFLFVSGAYDNQNKLWDCRSPKAPLYDLLGHGEKVLDIDWSNPKYIVSGGVDNTVRVFKSRKALAEEAETK
B4: Phosphorylated adapter for RNA export (PHAX) (protein, UniProt Q8SYG4 1-479)
chain: MVTLPLSVAQTAALWAKIFSRLAIKKMMELHANDVDLEDGELSESDDDGVYTPLQRPDGAEKVASPLTTCHQIQTALEDESQSNSDSSTAESSEDGCIKKLRTESTGPDGHKKRKKRIRRTVMRRVPPTDAEMQPNRARFKKYNVWASALQEDALSENMRGCDVTRSGRDRNVENYDFSLRYRLNGENTLKRRLSNSSEDGGECSHPAHKRGRPSSRPITGNQQRGLVKSRTGHRSRRGTSSASGSSDFCEPRHILDLNEVGERDPSDVATEMASKLYEEKDELLVRVVEVLGIDVCLELYKETQRIEADGGMMIKNGIRRRTPGGVFLFLIKHHDNITQEQQKRIFSEDRQSLSKSRKQIETLMRDRKVEELKKCLSKQVTELPTLNQRKEYYMQGDEQSEDKQPGSLSNPPPSPVGAEQEHDSPEYRTHEININLVDNAELPSTSKAAAAAQGAPLKDLISYDHDFLDVNCGDMDFF
B5: Stonewall (protein, UniProt Q24156 1-1037)
chain: MSAASEVNLMLLRSVEKQTALYDRTDENYRKRLPSENAWDMVASEVGESVEKCKRRWRQLRNDYTRWCNADANRRRNGQRRLAYPLADELRFLDRHLNIADDMAADDDRSVSSDKDRDNNRDSEGVDHHAQASLKERASSTSKLVKEVKLASQVRKEKSSQDKRENWENPGDKQRSRKKSAEEKLDDLEESDEPEKVPELDSFLQSDNEDDECMDEEHLDDLEGFDFDLEQSNQEKELTPEKSLEKNNTDSTVSQPEFFVKQTRDPRLLIIGRKNSTSSFAESKASKSISGDPLETAMEDSGDEYGRDGEKRVTGSDTTSPTRRPRRAARASISFAGIRDLPIQKPGQAQRMTRLQRRKSMSLAAVHSVRSSTSPVKMTPVPRSQPINKPPSGPVQITKISHRDDIFPRPAVPSGVVNINQNQLKTQQQQKTLIFPTTDEAIANPHGSGPPQRRSVGRPPKKLPMVQRIVAPETQTKPQSPINTKVLTIGKPTSSVASGNINNIAIKSNVVTSISSSTATTNTITKGTSNNSIKTTENVNVISYSKNSSSTSSSSKATTGASGAVITNIPTTTTAGTSVPVGKSITQLKMTERGTQTGVQNPFSDNYFLEMIKPQMQEMNPRQKMHFKKKVFQALMETFDDATDFPTSKELQHFNINTPSGFEHITDPELRLVRELVSMVSAAKVTLIRPPGEATAIATASRSGIAPEVQRGPRTNMTRQVIQRVYKPGTGQEIAPTSPAGGLDKRLFRLAAMGGKPNGNLSATQEILRKDSVDSNHSVVKVANHAPTGSPKGAAVVAAIRPQGSLINSFFGQGNGPTTAKGAASENIRAMSRRYSVCGSSNPPNAQNASQGSANGSTINSNASAMEASMLKRRLIAAGHGMVPPTQRPRYSAVGASQMTTASQGSSLLVRKSVGCVPAYQKQISPNGGASLLQKTPQIASVQGSAFNDFAQPKPAATASVNGEESSPTSALKRSLVVANTKTSFQDLLQQASQTVQRNKIESSETAATIAADDFSLDNLKREPVDPAEDHNDILGV
B6: Heat shock protein 27 (protein, UniProt P02518 1-213)
chain: MSIIPLLHLARELDHDYRTDWGHLLEDDFGFGVHAHDLFHPRRLLLPNTLGLGRRRYSPYERSHGHHNQMSRRASGGPNALLPAVGKDGFQVCMDVSQFKPNELTVKVVDNTVVVEGKHEEREDGHGMIQRHFVRKYTLPKGFDPNEVVSTVSSDGVLTLKAPPPPSKEQAKSERIVQIQQTGPAHLSVKAPAPEAGDGKAENGSGEKMETSK
B7: Vitellogenin-2 (protein, UniProt P02844 20-442)
chain: NPQSGNRSGRRSNSLDNVEQPSNWVNPREVEELPNLKEVTLKKLQEMSLEEGATLLDKLYHLSQFNHVFKPDYTPEPSQIRGYIVGERGQKIEFNLNTLVEKVKRQQKFGDDEVTIFIQGLPETNTQVQKATRKLVQAYQQRYNLQPYETTDYSNEEQSQRSSSEEQQTQRRKQNGEQDDTKTGDLIVIQLGNAIEDFEQYATLNIERLGEIIGNRLVELTNTVNVPQEIIHLIGSGPAAHVAGVAGRQFTRQTGHKLRRITALDPTKIYGKPEERLTGLARGDADFVDAIHTSAYGMGTSQRLANVDFFPNGPSTGVPGADNVVEATMRATRYFAESVRPGNERNFPSVAASSYQEYKQNKGYGKRGYMGIATDFDLQGDYILQVNSKSPFGRSTPAQKQTGYHQVHQPWRQSSSNQGSRRQ
B8: Voltage-dependent anion-selective channel (protein, UniProt Q94920 1-282)
chain: MAPPSYSDLGKQARDIFSKGYNFGLWKLDLKTKTSSGIEFNTAGHSNQESGKVFGSLETKYKVKDYGLTLTEKWNTDNTLFTEVAVQDQLLEGLKLSLEGNFAPQSGNKNGKFKVAYGHENVKADSDVNIDLKGPLINASAVLGYQGWLAGYQTAFDTQQSKLTTNNFALGYTTKDFVLHTAVNDGQEFSGSIFQRTSDKLDVGVQLSWASGTSNTKFAIGAKYQLDDDASVRAKVNNASQVGLGYQQKLRDGVTLTLSTLVDGKNFNAGGHKIGVGLELEA
B9: Elongation factor 1-gamma (protein, UniProt Q9NJH0 1-431)
chain: MVKGTLYTYPENFRAYKALIAAQYSGAQVKVADNFKFGETNKSAEFLKKFPGGKVPAFETAEGQYLSESNAIAYLLANEQLRGGKCPFVQAQVQQWISFADNEIVPASCAWVFPLLGILPQQKNSTAKQEAEAVLQQLNQKLQDATFLAGERITLADIVVFSSLLHLYEYVLEPSVRSAFGNVNRWFVTILNQKQVQAVVKDYKLCEKALVFDPKKYAEFQAKTGAAKPQQQAQQQKQEKKPKEKKEAPKKAAEPAEELDAADEALAAEPKSKDPFDALPKGTFNFDDFKRVYSNEDEAKSIPYFFDKFDAENYSIWFGEYKYNEELSKVFMSCNLITGMFQRLDKMRKAAFASVCLFGEDGNSTISGIWVWRGQDLAFTLSPDWQIDYEVYDWKKLDAKSEETKKLVTQYFSWSGTDKDGRKFNQGKIFK

biological target: SNAMA (D. melanogaster (endogenous in 0-6 h embryos)); experiment: affinity purification with mass spectrometry; co-immunoprecipitation from 1 mg crude extract of 0-6 h embryos with 15 ug chicken anti-SNAMA DCM antibody, captured on chicken IgY precipitating resin; SDS-PAGE bands absent from the control with pre-adsorbed pre-immune serum identified by LC-MS/MS

binding	Binder
binds	B1
binds	B2
binds	B3
binds	B4
binds	B5
binds	B6
binds	B7
binds	B8
binds	B9
